Among the data in paper PMC3694847 are binding values, retold here.

Amino acid sequences for entries named in this document (tags omitted).
UniProt O88522: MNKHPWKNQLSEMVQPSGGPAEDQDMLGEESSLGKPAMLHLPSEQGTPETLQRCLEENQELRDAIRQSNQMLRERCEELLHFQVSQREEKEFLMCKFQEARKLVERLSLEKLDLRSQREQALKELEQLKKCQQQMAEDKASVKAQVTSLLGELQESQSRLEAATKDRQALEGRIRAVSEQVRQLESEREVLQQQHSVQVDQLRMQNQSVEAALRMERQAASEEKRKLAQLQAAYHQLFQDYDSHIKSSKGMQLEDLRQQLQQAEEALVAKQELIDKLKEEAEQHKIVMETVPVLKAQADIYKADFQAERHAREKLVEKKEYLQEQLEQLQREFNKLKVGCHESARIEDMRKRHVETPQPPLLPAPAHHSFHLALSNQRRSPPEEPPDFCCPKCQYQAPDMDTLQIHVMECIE

Results are given in words; binding and its absence hold for the method and conditions named. Binding seen in cells or lysates may run through a third protein. Some binding calls cover weakened binding; strength is not graded here.

In experiment [1] the target is endogenous NEMO (MEF cells) (mouse (endogenous in MEF)) (UniProt O88522). The experiment can be described thus: co-IP; endogenous proteins; MEF lysates after mock or LPS (1 µg/ml) stimulation; IP with anti-NEMO antibody or IgG, blot with anti-CYLD; control cells.
Experiment [2] shares this target. Nature of the experiment: co-IP; endogenous proteins; MEF lysates after mock or LPS (1 µg/ml) stimulation; IP with anti-NEMO antibody or IgG, blot with anti-CYLD; cells with SENP6 knocked down.

B1: endogenous CYLD (MEF cells) (enzyme, UniProt Q80TQ2-2 1-955)
chain: MSSGLWSQEKVTSPYWEERIFYLLLQECSVTDKQTQKLLKVPKGSIGQYIQDRSVGHSRVPSTKGKKNQIGLKILEQPHAVLFVDEKDVVEINEKFTELLLAITNCEERLSLFRNRLRLSKGLQVDVGSPVKVQLRSGEEKFPGVVRFRGPLLAERTVSGIFFGVELLEEGRGQGFTDGVYQGKQLFQCDEDCGVFVALDKLELIEDDDNGLESDFAGPGDTMQVEPPPLEINSRVSLKVGESTESGTVIFCDVLPGKESLGYFVGVDMDNPIGNWDGRFDGVQLCSFASVESTILLHINDIIPALSDSVTQERRPPKLAFMSRGVGDKGSSSHNKPKVTGSTSDPGSRNRSELFYTLNGSSVDSQQSKSKNPWYIDEVAEDPAKSLTEMSSDFGHSSPPPQPPSMNSLSSENRFHSLPFSLTKMPNTNGSMAHSPLSLSVQSVMGELNSTPVQESPPLPISSGNAHGLEVGSLAEVKENPPFYGVIRWIGQPPGLSDVLAGLELEDECAGCTDGTFRGTRYFTCALKKALFVKLKSCRPDSRFASLQPVSNQIERCNSLAFGGYLSEVVEENTPPKMEKEGLEIMIGKKKGIQGHYNSCYLDSTLFCLFAFSSALDTVLLRPKEKNDIEYYSETQELLRTEIVNPLRIYGYVCATKIMKLRKILEKVEAASGFTSEEKDPEEFLNILFHDILRVEPLLKIRSAGQKVQDCNFYQIFMEKNEKVGVPTIQQLLEWSFINSNLKFAEAPSCLIIQMPRFGKDFKLFKKIFPSLELNITDLLEDTPRQCRICGGLAMYECRECYDDPDISAGKIKQFCKTCSTQVHLHPRRLNHSYHPVSLPKDLPDWDWRHGCIPCQKMELFAVLCIETSHYVAFVKYGKDDSAWLFFDSMADRDGGQNGFNIPQVTPCPEVGEYLKMSLEDLHSLDSRRIQGCARRLLCDAYMCMYQSPTMSLYK
As to B1, the binding result in experiment [1] was “binds”; in experiment [2], “no binding (condition: SENP6 knock-down by siRNA)”.
